Data source: PubChem BioAssay AID1259405 (NCATS, 2018)
The deposit covers about 50,000 reagents; shown is a part drawn at random. About 4,000 of all reagents (8%) count as active. 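Mouse siRNA library applied to hamster cells; one well for each siRNA.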 Unmarked entries are inactive. Reagents against one gene are numbered here.

Aim: 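Silenced genes that increase secreted GFP made by CHO cells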 (primary screen)
System: Chinese hamster CHO-K1 ovary cells with stable secreted eGFP expression
Reagents: single siRNA against mouse genes, 0.8 pmol siRNA per well (2 µl of 400 nM stock)
Time to read-out: 3 days
Measurement: 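Per-well intracellular GFP measured by laser scanning cytometry, plus viability from ATP luminescence, each relative to plate median of non-targeting control wells, in %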
Reading the numbers: GFP, % of control: higher = more GFP per well, higher productivity; viability (ATP), % of control: higher = more viable cells (more ATP)
Call rule: 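Called active when intracellular GFP, relative to negative control, is at or above 120%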

gene knocked down | reagent | GFP, % of control | viability (ATP), % of control
Ptgis | 1 | 90.6 | 79.6
Ptgis | 2 | 43.2 | 33.9
Ptgis | 3 | 91 | 76.6
Prss44 | 1 | 58 | 38.3
Prss44 | 2 | 87.9 | 107
Prss44 | 3 | 82.9 | 96.4
Gpr35 | 1 | 75.1 | 75.3
Gpr35 | 2 | 49 | 49.7
Gpr35 | 3 | 92.5 | 69.6
Snapc5 | 1 | 73.6 | 62.7
Snapc5 | 2 | 66.9 | 69
Snapc5 | 3 | 104 | 48.9
Glb1 | 1 | 91.4 | 74.7
Glb1 | 2 | 77.7 | 76.3
Glb1 | 3 | 93.4 | 113
Or5ac17 | 1 | 76.8 | 81.1
Or5ac17 | 2 | 88.7 | 42.2
Or5ac17 | 3 | 68.8 | 86.3
Hdac9 | 1 | 56.7 | 58.2
Hdac9 | 2 | 59.7 | 65.6
Hdac9 | 3 | 78.6 | 82.9
Lce3c | 1 | 81.4 | 74.5
Lce3c | 2 | 85 | 93.3
Lce3c | 3 | 186 (active) | 149
Samt2 | 1 | 38.6 | 67.8
Samt2 | 2 | 71.6 | 38.3
Samt2 | 3 | 105 | 68.3
Skp1 | 1 | 35.7 | 31.3
Skp1 | 2 | 50.6 | 27.2
Skp1 | 3 | 66.7 | 51.7
Defb37 | 1 | 50.6 | 49.2
Defb37 | 2 | 71.6 | 83.9
Defb37 | 3 | 116 | 72.8
Stat1 | 1 | 73.4 | 102
Stat1 | 2 | 59.7 | 75.3
Stat1 | 3 | 59.4 | 95.5
Rapgef3 | 1 | 96.2 | 47.4
Rapgef3 | 2 | 91.9 | 58
Rapgef3 | 3 | 95.7 | 84
Myl10 | 1 | 73.7 | 77
Myl10 | 2 | 67.8 | 73.9
Myl10 | 3 | 77.4 | 70.9
Stt3a | 1 | 88.6 | 75.8
Stt3a | 2 | 144 (active) | 47.9
Psg29 | 1 | 54.8 | 55.2
Psg29 | 2 | 55 | 64.6
Psg29 | 3 | 81.1 | 98.3
Sphkap | 1 | 74.1 | 58.7
Sphkap | 2 | 59.5 | 61.5
Sphkap | 3 | 56.4 | 77.8
Gng11 | 1 | 97.3 | 106
Gng11 | 2 | 45.8 | 50.1
Gng11 | 3 | 70.1 | 65.2
Aldh4a1 | 1 | 115 | 110
Aldh4a1 | 2 | 65.1 | 80.4
Aldh4a1 | 3 | 109 | 87.9
Hectd2 | 1 | 79.2 | 62.6
Hectd2 | 2 | 57.7 | 59.2
Hectd2 | 3 | 56.7 | 67.4
Vmn2r37 | 1 | 64.8 | 77.2
Vmn2r37 | 2 | 67.6 | 85.9
Vmn2r37 | 3 | 73.6 | 71.9
Evx2 | 1 | 66.1 | 72
Evx2 | 2 | 72.4 | 67.8
Evx2 | 3 | 106 | 95.3
BC030500 | 1 | 61.7 | 77.6
BC030500 | 2 | 64 | 86.8
BC030500 | 3 | 138 (active) | 157
Ptpa | 1 | 90.1 | 79.9
Ptpa | 2 | 92 | 58.4
Ptpa | 3 | 66.5 | 99.9
Apol7a | 1 | 58.4 | 43.4
Apol7a | 2 | 87.5 | 104
Apol7a | 3 | 78.2 | 83.4
Rbm10 | 1 | 78.5 | 83.9
Rbm10 | 2 | 65.5 | 68.8
Fbxw26 | 1 | 88.6 | 94.7
Fbxw26 | 2 | 70.8 | 64.7
Fbxw26 | 3 | 76 | 44.7
Ugt2b35 | 1 | 101 | 126
Ugt2b35 | 2 | 69.8 | 92.7
Ugt2b35 | 3 | 38.4 | 53
Msantd5l | 1 | 75.3 | 87.7
Msantd5l | 2 | 87.9 | 89.9
Msantd5l | 3 | 137 (active) | 127

No new results follow: an excerpt of the list.
gene knocked down | reagent | GFP, % of control | viability (ATP), % of control
Myl10 | 1 | 73.7 | 77
Myl10 | 2 | 67.8 | 73.9
Myl10 | 3 | 77.4 | 70.9
Stt3a | 1 | 88.6 | 75.8
Stt3a | 2 | 144 (active) | 47.9
Psg29 | 1 | 54.8 | 55.2
Psg29 | 2 | 55 | 64.6
Psg29 | 3 | 81.1 | 98.3
Sphkap | 1 | 74.1 | 58.7
